These are yes or no findings as the source states them, for the method shown. Some results given as binding are weak or reduced against the parent protein; the word gives no strength. Tags and fused reporters may be left off the sequences shown.
B1: 2B1 scFv-Fc (Fc fusion)
chain: EVQLQQSGAELVKPGASVKMSCKASGYTFASYNLHWVKQTPGQGLEWIGLIYPENGDTSYNQKFKGKATLTADKSSSTAYIQLSSLTSEDSAVYFCARGGFDYWGQGTSLTVSSGGGGSGGGGSGGGGSDIQMIQSPASLSVSVGETVTITCRASENIYSNLAWYQQKQGKSPQLLVYNAKTLADGVPSRFSGSGSGTQYSLKINSLQPEDFGSYYCQHFWSTPYTFGGGTKLEIKESKYGPPCPPCPAPEAAGGPSVFLFPPKPKDTLMISRTPEVTCVVVDVSQEDPEVQFNWYVDGVEVHNAKTKPREEQFNSTYRVVSVLTVLHQDWLNGKEYKCKVSNKGLPSSIEKTISKAKGQPREPQVYTLPPSQEEMTKNQVSLTCLVKGFYPSDIAVEWESNGQPENNYKTTPPVLDSDGSFFLYSKLTVDKSRWQEGNVFSCSVMHEALHNHYTQKSLSLSLG
B2: 3E3 scFv-Fc (Fc fusion)
chain: QVQLQQPGAVLVKPGASVRMSCKASGYTFPYYNVHWVKRTPGQGLEWIGLIYPDNGDTSYNQKFTGKATLTADTSSSTAYMQLSSLTSEDSAVYYCARGGLDYWGQGTTLTVSAGGGGSGGGGSGGGGSDVQITQSPASLSASVGETVTITCGASENIYGALNWYQRKQGKSPQLLIYGATNLADGMSSRFSGSGSGRQYSLKISSLHPDDVATYYCQNVLSTPYTFGGGTKLEIKESKYGPPCPPCPAPEAAGGPSVFLFPPKPKDTLMISRTPEVTCVVVDVSQEDPEVQFNWYVDGVEVHNAKTKPREEQFNSTYRVVSVLTVLHQDWLNGKEYKCKVSNKGLPSSIEKTISKAKGQPREPQVYTLPPSQEEMTKNQVSLTCLVKGFYPSDIAVEWESNGQPENNYKTTPPVLDSDGSFFLYSKLTVDKSRWQEGNVFSCSVMHEALHNHYTQKSLSLSLG
B3: 3A12 scFv-Fc (Fc fusion)
chain: EVQLQQSGAELVKPGASVKMSCKASGYTFSFYNVHWVRQTPGQGLEWIGLIYPDNGDTSYNQKFKAKATLTADKSSSAAYMQLSSLTSEDSAVYYCARGGFDYWGQGTSLTVSSGGGGSGGGGSGGGGSDIVMTQSHKFMSTSVGDRVNITCKASQDVSTAVAWYQQKPGQSPKLLIYSASYRYSGVPDRFTGSGSGTDFTFTISSVQAEDLAVYYCQQHYSTPYTFGGGTKLEMKESKYGPPCPPCPAPEAAGGPSVFLFPPKPKDTLMISRTPEVTCVVVDVSQEDPEVQFNWYVDGVEVHNAKTKPREEQFNSTYRVVSVLTVLHQDWLNGKEYKCKVSNKGLPSSIEKTISKAKGQPREPQVYTLPPSQEEMTKNQVSLTCLVKGFYPSDIAVEWESNGQPENNYKTTPPVLDSDGSFFLYSKLTVDKSRWQEGNVFSCSVMHEALHNHYTQKSLSLSLG
B4: 3E7 scFv-Fc (Fc fusion)
chain: QVQLQQSGAELVKPGASVKMSCKASGYTFTIYNIHWVRQTPGQGLEWIGLIYPDNGDTSYNQKFKAKATLTADKSSSTAYMQLSSLTSEDSAVYYCARGGFDYWGQGTTLTVSSGGGGSGGGGSGGGGSNIVMTQSQKFMSTSVGDRVSVTCKASQNVGTNVAWYQQKPGQSPKALIYSASYRYSGVPDRFTGSGSGTDFTLTISGVQAEDLADYYCQQHYNTPYTFGGGTKLEIKESKYGPPCPPCPAPEAAGGPSVFLFPPKPKDTLMISRTPEVTCVVVDVSQEDPEVQFNWYVDGVEVHNAKTKPREEQFNSTYRVVSVLTVLHQDWLNGKEYKCKVSNKGLPSSIEKTISKAKGQPREPQVYTLPPSQEEMTKNQVSLTCLVKGFYPSDIAVEWESNGQPENNYKTTPPVLDSDGSFFLYSKLTVDKSRWQEGNVFSCSVMHEALHNHYTQKSLSLSLG
B5: 3F5 scFv-Fc (Fc fusion)
chain: EIQLQQSGAELVKPGASVKMSCKASGYTFRYYNMHWVKRTPGQGLEWIGLIYPDNGDTSYNQKFKGKATLTADTSSSTAYMQLSSLTSEDSAVYYCARGGLDYWGQGTTLTVSSGGGGSGGGGSGGGGSDIVLTQSPASLSASVGETVTITCGASENIYGALNWYQRKQGKSPQLLIYGATNLADGMSSRFSGSGSGRQYSLKISSLHPDDVATYYCQNVLSTPYTFGGGTKLEIKESKYGPPCPPCPAPEAAGGPSVFLFPPKPKDTLMISRTPEVTCVVVDVSQEDPEVQFNWYVDGVEVHNAKTKPREEQFNSTYRVVSVLTVLHQDWLNGKEYKCKVSNKGLPSSIEKTISKAKGQPREPQVYTLPPSQEEMTKNQVSLTCLVKGFYPSDIAVEWESNGQPENNYKTTPPVLDSDGSFFLYSKLTVDKSRWQEGNVFSCSVMHEALHNHYTQKSLSLSLG
B6: 3F10 scFv-Fc (Fc fusion)
chain: EVQLQQSGAELVKPGASVKMSCKASGYTFSFYNIHWVRQTPGQGLEWIGLIYPDNGDTSYNQKFKAKATLTADKSSSTAYMQLSSLTSEDSAVYYCARGGFDYWGQGTTLTVSSGGGGSGGGGSGGGGSDVLMTQSPASLSASVGETVTITCGASENIYGALNWYQRKQGKSPQLLIYGATNLADGMSSRFSGSGSGRQYSLKISSLHPDDVATYYCQNVLSTPYTFGGGTKLEIKESKYGPPCPPCPAPEAAGGPSVFLFPPKPKDTLMISRTPEVTCVVVDVSQEDPEVQFNWYVDGVEVHNAKTKPREEQFNSTYRVVSVLTVLHQDWLNGKEYKCKVSNKGLPSSIEKTISKAKGQPREPQVYTLPPSQEEMTKNQVSLTCLVKGFYPSDIAVEWESNGQPENNYKTTPPVLDSDGSFFLYSKLTVDKSRWQEGNVFSCSVMHEALHNHYTQKSLSLSLG
B7: 3C9 scFv-Fc (Fc fusion)
chain: EIQLQQSGAELVKPGASVKMSCKASGYIFRYYNMHWVKRTPGQGLEWIGLIYPDNGDTSYNQKFKGKATLTADTSSSTAYMQLSSLTSEDSAVYYCARGGLDYWGQGTTLTVSSGGGGSGGGGSGGGGSDIQMIQSPASLSASVGETVTITCGASENIYGALNWYQRKQGKSPQLLIYGATNLADGMSSRFSGSGSGRQYSLKISSLHPDDVATYYCQNVLSTPYTFGGGTKLEIKESKYGPPCPPCPAPEAAGGPSVFLFPPKPKDTLMISRTPEVTCVVVDVSQEDPEVQFNWYVDGVEVHNAKTKPREEQFNSTYRVVSVLTVLHQDWLNGKEYKCKVSNKGLPSSIEKTISKAKGQPREPQVYTLPPSQEEMTKNQVSLTCLVKGFYPSDIAVEWESNGQPENNYKTTPPVLDSDGSFFLYSKLTVDKSRWQEGNVFSCSVMHEALHNHYTQKSLSLSLG
B8: 3D6 scFv-Fc (Fc fusion)
chain: QVQLQQSGAELVKPGASVKMSCKASGYTFRYYNMHWVKRTPGQGLEWIGLIYPDNGDTSYNQKFKGKATLTADTSSSTAYMQLSSLTSEDSAVYYCARGGLDYWGQGTSLTVSSGGGGSGGGGSGGGGSDIQMTQSPASLSVSVGETVTITCRASENIYSNLAWYQQKQGKSPQLLVYNAKTLADGVPSRFSGSGSGTQYSLKINSLQPEDFGSYYCQHFWSTPFTFGSGTKLELKESKYGPPCPPCPAPEAAGGPSVFLFPPKPKDTLMISRTPEVTCVVVDVSQEDPEVQFNWYVDGVEVHNAKTKPREEQFNSTYRVVSVLTVLHQDWLNGKEYKCKVSNKGLPSSIEKTISKAKGQPREPQVYTLPPSQEEMTKNQVSLTCLVKGFYPSDIAVEWESNGQPENNYKTTPPVLDSDGSFFLYSKLTVDKSRWQEGNVFSCSVMHEALHNHYTQKSLSLSLG
B9: 3H6 scFv-Fc (Fc fusion)
chain: QVQLQQSGAELVKPGASVKMSCKASGYTFSFYNIHWVRQTPGQGLEWIGLIYPDNGDTSYNQKFKAKATLTADKSSSTAYMQLSSLTSEDSAVYYCARGGFDYWGQGTTLTVSSGGGGSGGGGSGGGGSDIQMTQSPASLSASVGETVTITCRASENIYSYLAWYQQKQGKSPQLLVYNAKTLAEGVPSRFSGSGSGTQFSLKINSLQPEDFGSYYCQHHYGTPYTFGGGTKLEMKESKYGPPCPPCPAPEAAGGPSVFLFPPKPKDTLMISRTPEVTCVVVDVSQEDPEVQFNWYVDGVEVHNAKTKPREEQFNSTYRVVSVLTVLHQDWLNGKEYKCKVSNKGLPSSIEKTISKAKGQPREPQVYTLPPSQEEMTKNQVSLTCLVKGFYPSDIAVEWESNGQPENNYKTTPPVLDSDGSFFLYSKLTVDKSRWQEGNVFSCSVMHEALHNHYTQKSLSLSLG
B10: 3E2 scFv-Fc (Fc fusion)
chain: EIQLQQSGAELVKPGASVKMSCKASGYTFSFYNMHWVKRTPGQGLEWIGLIYPDNGDTSYNQKFKGKATLTADTSSSTAYMQLSSLTSEDSAVYYCARGGLDYWGQGTSLTVSSGGGGSGGGGSGGGGSNIVMTQSQKFMSTSVGDRVSVTCKASQNVGTNVAWYQQKPGQSPKALIYSASYRYTGVPDRFTGSGSGTDFTFTISSVQAEDLAVYYCQQHYSTPYTFGGGTKLEIKESKYGPPCPPCPAPEAAGGPSVFLFPPKPKDTLMISRTPEVTCVVVDVSQEDPEVQFNWYVDGVEVHNAKTKPREEQFNSTYRVVSVLTVLHQDWLNGKEYKCKVSNKGLPSSIEKTISKAKGQPREPQVYTLPPSQEEMTKNQVSLTCLVKGFYPSDIAVEWESNGQPENNYKTTPPVLDSDGSFFLYSKLTVDKSRWQEGNVFSCSVMHEALHNHYTQKSLSLSLG
B11: 3B4 scFv-Fc (Fc fusion)
chain: EVQLQQSGADLVKPGASVKMSCKASGYTFSYYNMHWVRRTPGQGLEWIGLIYPDNGDTSYNQKFKGKATLTADTSSSTAYMQLSSLTSEDSAVYYCARGGLDYWGQGTTLTVSSGGGGSGGGGSGGGGSDIQMIQSPASMSASVGETVTITCGASENIYGALNWYQRKQGKSPQLLIYGATNLADGMSSRFSGSGSGRQYSLKISSLHPDDVATYYCQNVLSTPYTFGGGTKLEMKESKYGPPCPPCPAPEAAGGPSVFLFPPKPKDTLMISRTPEVTCVVVDVSQEDPEVQFNWYVDGVEVHNAKTKPREEQFNSTYRVVSVLTVLHQDWLNGKEYKCKVSNKGLPSSIEKTISKAKGQPREPQVYTLPPSQEEMTKNQVSLTCLVKGFYPSDIAVEWESNGQPENNYKTTPPVLDSDGSFFLYSKLTVDKSRWQEGNVFSCSVMHEALHNHYTQKSLSLSLG
B12: 3B7 scFv-Fc (Fc fusion)
chain: EVQLQQSGAELVKPGASVKMSCKASGYTFRYYNMHWVKRTPGQGLEWIGLIYPDNGDTSYNQKFKGKATLTADTSSSTAYMQLSSLTSEDSAVYYCARGGFDYWGQGTTLTVSSGGGGSGGGGSGGGGSDIQMTQSPASLSASVGETVTITCGASENIYGALNWYQRKQGKSPQLLIYGATNLADGMSSRFSGSGSGRQYSLKISSLHPDDVATYYCQNVLSTPYTFGGGTKLELKESKYGPPCPPCPAPEAAGGPSVFLFPPKPKDTLMISRTPEVTCVVVDVSQEDPEVQFNWYVDGVEVHNAKTKPREEQFNSTYRVVSVLTVLHQDWLNGKEYKCKVSNKGLPSSIEKTISKAKGQPREPQVYTLPPSQEEMTKNQVSLTCLVKGFYPSDIAVEWESNGQPENNYKTTPPVLDSDGSFFLYSKLTVDKSRWQEGNVFSCSVMHEALHNHYTQKSLSLSLG

By UniProt entry, the sequences of proteins in these tests, tags left out. Where a name states a change or a piece, a line headed by the entry shows the natural chain unless it says otherwise. Chains listed by the source or under a name are the forms on record and can include a tag or linker.
human FGFR2b (Kaixia Biotechnology, catalog number FGR-HM1BB) (P21802, form named): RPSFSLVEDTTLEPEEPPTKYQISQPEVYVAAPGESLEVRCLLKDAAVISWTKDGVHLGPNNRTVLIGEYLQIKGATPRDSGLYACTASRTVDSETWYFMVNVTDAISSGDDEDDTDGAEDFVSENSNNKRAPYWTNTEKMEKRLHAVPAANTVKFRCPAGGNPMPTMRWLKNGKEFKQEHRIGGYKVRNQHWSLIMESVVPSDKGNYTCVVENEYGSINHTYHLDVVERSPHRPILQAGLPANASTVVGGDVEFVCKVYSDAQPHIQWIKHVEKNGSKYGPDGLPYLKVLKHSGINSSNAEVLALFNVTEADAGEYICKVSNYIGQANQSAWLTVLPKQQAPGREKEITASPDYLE

Target: human FGFR2b (Kaixia Biotechnology, catalog number FGR-HM1BB) (human) (UniProt P21802)
Test: ELISA, antibody 1ug/mL

binding, binds:
B1
B2
B3
B4
B5
B6
B7
B8
B9
B10
B11
B12

Reference: EP4714976A1
